{"sequences": {"note": "Sequences of proteins named here, by UniProt entry; tags and fusion partners are left off. A change or cut given only in a name is not applied to a line headed by its entry.", "UniProt Q9UN81": "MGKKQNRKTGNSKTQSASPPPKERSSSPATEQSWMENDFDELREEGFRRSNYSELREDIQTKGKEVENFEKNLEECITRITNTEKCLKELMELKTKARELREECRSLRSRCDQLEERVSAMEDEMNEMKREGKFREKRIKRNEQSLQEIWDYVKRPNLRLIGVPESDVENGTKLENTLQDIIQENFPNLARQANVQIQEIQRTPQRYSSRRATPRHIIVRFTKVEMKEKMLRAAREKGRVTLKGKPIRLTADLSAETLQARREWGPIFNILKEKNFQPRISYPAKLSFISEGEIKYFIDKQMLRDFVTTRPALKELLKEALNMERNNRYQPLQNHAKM", "UniProt Q8WUM4": "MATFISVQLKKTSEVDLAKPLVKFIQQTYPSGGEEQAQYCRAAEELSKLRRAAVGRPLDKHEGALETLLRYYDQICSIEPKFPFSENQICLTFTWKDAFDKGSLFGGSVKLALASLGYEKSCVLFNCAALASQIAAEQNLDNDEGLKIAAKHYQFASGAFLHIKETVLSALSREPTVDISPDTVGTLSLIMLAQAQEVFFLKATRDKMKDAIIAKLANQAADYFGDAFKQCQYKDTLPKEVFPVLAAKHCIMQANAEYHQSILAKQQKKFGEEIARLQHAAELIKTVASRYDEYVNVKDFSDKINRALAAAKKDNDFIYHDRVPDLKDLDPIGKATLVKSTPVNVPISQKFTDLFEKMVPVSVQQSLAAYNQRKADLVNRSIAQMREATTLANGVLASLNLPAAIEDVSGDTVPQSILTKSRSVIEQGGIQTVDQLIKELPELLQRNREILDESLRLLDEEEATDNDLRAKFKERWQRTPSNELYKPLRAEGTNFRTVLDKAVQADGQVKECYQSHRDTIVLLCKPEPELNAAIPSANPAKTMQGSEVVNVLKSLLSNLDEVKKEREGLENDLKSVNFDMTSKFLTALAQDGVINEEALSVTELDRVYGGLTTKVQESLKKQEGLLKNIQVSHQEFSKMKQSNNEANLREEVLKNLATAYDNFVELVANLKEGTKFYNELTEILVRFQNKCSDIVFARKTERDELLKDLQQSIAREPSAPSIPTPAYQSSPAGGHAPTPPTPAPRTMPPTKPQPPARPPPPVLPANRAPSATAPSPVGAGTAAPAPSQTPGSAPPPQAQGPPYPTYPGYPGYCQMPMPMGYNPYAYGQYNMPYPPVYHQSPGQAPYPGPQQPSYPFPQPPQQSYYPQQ"}, "source": "paper PMC5478143", "key": {"[1]": {"molecular_target": "T1, HA-tagged Vps23p (S. cerevisiae) (UniProt P25604)", "T1 sequence": "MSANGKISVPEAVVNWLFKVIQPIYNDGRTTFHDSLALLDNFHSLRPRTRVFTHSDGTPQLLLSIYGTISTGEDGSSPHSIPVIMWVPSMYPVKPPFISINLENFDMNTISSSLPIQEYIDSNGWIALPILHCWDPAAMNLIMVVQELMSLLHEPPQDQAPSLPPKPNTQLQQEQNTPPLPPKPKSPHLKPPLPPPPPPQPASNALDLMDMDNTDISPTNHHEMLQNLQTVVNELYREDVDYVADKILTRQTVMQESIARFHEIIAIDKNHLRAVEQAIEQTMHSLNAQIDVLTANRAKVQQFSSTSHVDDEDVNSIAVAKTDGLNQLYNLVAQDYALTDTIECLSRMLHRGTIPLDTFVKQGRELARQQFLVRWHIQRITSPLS", "assay": "co-IP; yeast lysates (JHY148) after galactose induction; IP with anti-HA affinity matrix, western blot for Zorro3 ORF1p (G01); 25 mM Tris-Cl pH 7.4, 150 mM NaCl, 0.5% Triton X-100, 0.5% Na-deoxycholate"}, "[2]": {"molecular_target": "T2, HA-tagged Snf7p (S. cerevisiae) (UniProt P39929)", "T2 sequence": "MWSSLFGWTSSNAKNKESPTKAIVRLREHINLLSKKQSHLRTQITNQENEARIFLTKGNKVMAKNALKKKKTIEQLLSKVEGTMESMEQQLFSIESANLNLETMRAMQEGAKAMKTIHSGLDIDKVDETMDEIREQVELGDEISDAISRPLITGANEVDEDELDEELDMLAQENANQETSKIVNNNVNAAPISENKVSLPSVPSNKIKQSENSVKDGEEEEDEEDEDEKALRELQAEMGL", "assay": "co-IP; yeast lysates (JHY148) after galactose induction; IP with anti-HA affinity matrix, western blot for Zorro3 ORF1p (G01); 25 mM Tris-Cl pH 7.4, 150 mM NaCl, 0.5% Triton X-100, 0.5% Na-deoxycholate"}, "[3]": {"molecular_target": "T3, HA-tagged Vps4p (S. cerevisiae) (UniProt P52917)", "T3 sequence": "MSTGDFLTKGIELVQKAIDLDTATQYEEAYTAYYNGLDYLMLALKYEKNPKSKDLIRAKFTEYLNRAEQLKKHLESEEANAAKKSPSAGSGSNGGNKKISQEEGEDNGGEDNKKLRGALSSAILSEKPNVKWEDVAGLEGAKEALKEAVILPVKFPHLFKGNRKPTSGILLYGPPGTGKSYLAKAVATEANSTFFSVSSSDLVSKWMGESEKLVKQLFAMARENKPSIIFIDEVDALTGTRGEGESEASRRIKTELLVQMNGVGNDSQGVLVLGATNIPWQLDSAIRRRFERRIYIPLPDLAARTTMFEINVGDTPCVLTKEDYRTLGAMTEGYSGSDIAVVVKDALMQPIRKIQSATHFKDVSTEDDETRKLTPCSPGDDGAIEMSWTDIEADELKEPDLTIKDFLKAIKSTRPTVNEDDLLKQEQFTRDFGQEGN", "assay": "co-IP; yeast lysates (JHY148) after galactose induction; IP with anti-HA affinity matrix, western blot for Zorro3 ORF1p (G01); 25 mM Tris-Cl pH 7.4, 150 mM NaCl, 0.5% Triton X-100, 0.5% Na-deoxycholate"}, "[4]": {"molecular_target": "T4, HA-tagged Snf8p (S. cerevisiae) (UniProt Q12483)", "T4 sequence": "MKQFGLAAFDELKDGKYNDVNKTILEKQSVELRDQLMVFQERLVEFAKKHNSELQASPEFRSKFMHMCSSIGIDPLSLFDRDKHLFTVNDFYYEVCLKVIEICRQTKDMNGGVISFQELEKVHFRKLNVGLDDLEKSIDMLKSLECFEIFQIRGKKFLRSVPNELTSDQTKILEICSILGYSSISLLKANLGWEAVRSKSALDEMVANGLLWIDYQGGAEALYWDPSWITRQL", "assay": "co-IP; yeast lysates (JHY148) after galactose induction; IP with anti-HA affinity matrix, western blot for Zorro3 ORF1p (G01); 25 mM Tris-Cl pH 7.4, 150 mM NaCl, 0.5% Triton X-100, 0.5% Na-deoxycholate"}, "[5]": {"molecular_target": "T5, HA-tagged Bro1p (S. cerevisiae) (UniProt P48582)", "T5 sequence": "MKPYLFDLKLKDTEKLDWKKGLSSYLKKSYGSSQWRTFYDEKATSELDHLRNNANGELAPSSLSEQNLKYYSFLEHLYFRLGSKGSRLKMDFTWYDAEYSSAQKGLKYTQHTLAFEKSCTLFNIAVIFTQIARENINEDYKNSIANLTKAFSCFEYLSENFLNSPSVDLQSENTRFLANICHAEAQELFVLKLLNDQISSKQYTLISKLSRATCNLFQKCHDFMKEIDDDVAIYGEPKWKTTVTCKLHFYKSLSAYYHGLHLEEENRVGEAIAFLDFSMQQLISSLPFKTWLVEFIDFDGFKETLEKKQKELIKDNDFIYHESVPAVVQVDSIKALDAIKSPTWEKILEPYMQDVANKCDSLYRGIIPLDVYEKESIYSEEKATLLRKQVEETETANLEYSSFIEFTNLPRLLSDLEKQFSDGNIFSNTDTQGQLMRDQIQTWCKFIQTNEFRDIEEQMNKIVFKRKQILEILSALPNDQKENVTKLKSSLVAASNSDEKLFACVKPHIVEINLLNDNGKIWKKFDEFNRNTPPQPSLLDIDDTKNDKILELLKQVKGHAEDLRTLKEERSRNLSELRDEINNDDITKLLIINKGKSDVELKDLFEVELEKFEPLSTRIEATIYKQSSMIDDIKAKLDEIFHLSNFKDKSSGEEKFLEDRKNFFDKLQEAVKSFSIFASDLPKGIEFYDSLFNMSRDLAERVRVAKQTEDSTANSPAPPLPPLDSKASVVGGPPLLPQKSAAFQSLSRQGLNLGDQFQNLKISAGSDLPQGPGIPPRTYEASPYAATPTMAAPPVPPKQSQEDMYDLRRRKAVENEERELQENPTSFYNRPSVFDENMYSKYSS", "assay": "co-IP; yeast lysates (JHY148) after galactose induction; IP with anti-HA affinity matrix, western blot for Zorro3 ORF1p (G01); 25 mM Tris-Cl pH 7.4, 150 mM NaCl, 0.5% Triton X-100, 0.5% Na-deoxycholate"}, "[6]": {"molecular_target": "human L1 ORF1p Y282A (human) (UniProt Q9UN81)", "assay": "co-IP; Tet-293 cell lysates, 48 h after doxycycline induction of L1 and ALIX-2HA transfection; IP of L1 ORF1p with JH74, western blot with anti-ALIX or anti-HA 12CA5; 25 mM HEPES pH 7.4, 200 mM NaCl, with DNase I and RNase A"}, "[7]": {"molecular_target": "Zorro3 ORF1p (Candida albicans)", "assay": "co-IP; yeast lysates (JHY148; control strain JHY146 without Zorro3) after galactose induction; IP with anti-Zorro3 ORF1p antibody G01, western blot for HA; 25 mM Tris-Cl pH 7.4, 150 mM NaCl, 0.5% Triton X-100, 0.5% Na-deoxycholate; with or without 0.5 ug/mL RNase A"}}, "note": "These are yes or no findings as the source states them, for the method shown. In cells and extracts the contact can be indirect. For part of these data: A result given as binding can be weak or reduced; the word gives no strength. For part of these data: Where a sequence is shown, tags or fusion partners need not be part of it."}
{"molecule": "Zorro3 ORF1p (Candida albicans)", "values": [{"measurement": "binding", "setting": "[1]", "value": "binds"}, {"measurement": "binding", "setting": "[2]", "value": "binds"}, {"measurement": "binding", "setting": "[3]", "value": "binds"}, {"measurement": "binding", "setting": "[4]", "value": "binds"}, {"measurement": "binding", "setting": "[5]", "value": "no binding"}]}
{"molecule": "ALIX-2HA (from UniProt Q8WUM4 1-868)", "values": [{"measurement": "binding", "setting": "[6]", "value": "no binding"}]}
{"molecule": "HA-tagged Snf7p (protein, UniProt P39929 1-240) MWSSLFGWTSSNAKNKESPTKAIVRLREHINLLSKKQSHLRTQITNQENEARIFLTKGNKVMAKNALKKKKTIEQLLSKVEGTMESMEQQLFSIESANLNLETMRAMQEGAKAMKTIHSGLDIDKVDETMDEIREQVELGDEISDAISRPLITGANEVDEDELDEELDMLAQENANQETSKIVNNNVNAAPISENKVSLPSVPSNKIKQSENSVKDGEEEEDEEDEDEKALRELQAEMGL", "values": [{"measurement": "binding", "setting": "[7]", "value": "binds"}]}
{"molecule": "HA-tagged Vps23p (protein, UniProt P25604 1-385) MSANGKISVPEAVVNWLFKVIQPIYNDGRTTFHDSLALLDNFHSLRPRTRVFTHSDGTPQLLLSIYGTISTGEDGSSPHSIPVIMWVPSMYPVKPPFISINLENFDMNTISSSLPIQEYIDSNGWIALPILHCWDPAAMNLIMVVQELMSLLHEPPQDQAPSLPPKPNTQLQQEQNTPPLPPKPKSPHLKPPLPPPPPPQPASNALDLMDMDNTDISPTNHHEMLQNLQTVVNELYREDVDYVADKILTRQTVMQESIARFHEIIAIDKNHLRAVEQAIEQTMHSLNAQIDVLTANRAKVQQFSSTSHVDDEDVNSIAVAKTDGLNQLYNLVAQDYALTDTIECLSRMLHRGTIPLDTFVKQGRELARQQFLVRWHIQRITSPLS", "values": [{"measurement": "binding", "setting": "[7]", "value": "binds"}]}
{"molecule": "HA-tagged Snf8p (protein, UniProt Q12483 1-233) MKQFGLAAFDELKDGKYNDVNKTILEKQSVELRDQLMVFQERLVEFAKKHNSELQASPEFRSKFMHMCSSIGIDPLSLFDRDKHLFTVNDFYYEVCLKVIEICRQTKDMNGGVISFQELEKVHFRKLNVGLDDLEKSIDMLKSLECFEIFQIRGKKFLRSVPNELTSDQTKILEICSILGYSSISLLKANLGWEAVRSKSALDEMVANGLLWIDYQGGAEALYWDPSWITRQL", "values": [{"measurement": "binding", "setting": "[7]", "value": "binds"}]}
